Experimental data as given in PubChem BioAssay AID2685 (National Center for Advancing Translational Sciences (NCATS), 2010).
Screen size: about 320,000 compounds; about 2,100 (0.66%) were called active. The shares of active, inactive and inconclusive entries below differ from those in the screen. The call rests on the fitted dose curve; in most records, active means well fitted inhibition curve with a large enough effect in the signal ratio, with a control signal flat (not every such curve was filed as active); inconclusive means small, poorly fitted or top-dose-only effect, or effect the other way, or a change in a side signal; inactive means flat fitted curve, though single readings scatter; the % refers to the signal ratio. A potency beside an inconclusive call is a rough fit, not a confirmed value.

assay: qHTS Assay for Lipid Storage Modulators in Drosophila S3 Cells; settings: BODIPY lipid droplet fluorescence, 18-24 h, cells fed with added oleic acid; lipid storage change, negative = inhibition: at 46.1 µM (top of the series) unless noted
How it was run: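 Drosophila S3 cells loaded with oleic acid (400 uM, as added) and compounds at several concentrations; lipid droplets imaged by 488-nm laser-scanning cytometry, 500–530 nm intensity and object ratio to cell channel. Percent activity normalized to 20 uM Triacsin C.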
On the % scale 0 is the no-effect control and ±100 the full control effect; potency means the concentration at half of the fitted maximal effect.

Question: With `O=C(Nc1nnc(-c2ccccc2)o1)c1cccc(N2C(=O)CCC2=O)c1` as the molecule, how does the lipid storage change, negative = inhibition read?
Answer: inconclusive: 32%

Question: With `Cc1ccc(N2C(=O)CC(c3ccsc3)C3=C2CC(C)(C)CC3=O)cc1` (stereo not given) as the molecule, how does the lipid storage change, negative = inhibition read?
Answer: inconclusive: -13%

Question: For `COc1ccc(OC)c(CCNC(=O)CCn2nc(C)c3c(C)n(-c4ccccc4)nc3c2=O)c1`, which lipid storage change, negative = inhibition is on record?
Answer: inconclusive: -60.5%

Question: Which lipid storage change, negative = inhibition does the source give for `O=c1[nH]c(N2CCOCC2)nc2c1CCCC2` here?
Answer: inconclusive: 15.8%

Question: Which Potency does the source give for `Cc1ccc(N2CCN(S(=O)(=O)c3c(C)nc4scc(C)n4c3=O)CC2)c(C)c1` here?
Answer: inconclusive: 29.1 µM [falling, single point]

Question: For `Cc1c(OCC(=O)N[C@H](C(=O)O)c2ccccc2)ccc2c3c(c(=O)oc12)CCCC3`, which lipid storage change, negative = inhibition is on record?
Answer: inconclusive: 16.1%

Question: Which Potency does the source give for `COc1ccc(-n2nc(N)c(C(N)=O)n2)cc1` here?
Answer: inconclusive: 29.1 µM [activator, single point]

Question: With `COc1ccc(C(=O)C[n+]2cc(-c3ccc(OC)cc3)n3c2CCCC3)cc1` as the molecule, how does the lipid storage change, negative = inhibition read?
Answer: inconclusive: 10.7%

Question: With `CCCCOC(=O)n1c(SCC(=O)N(C)C)nc2ccccc21` as the molecule, how does the lipid storage change, negative = inhibition read?
Answer: inconclusive: -4.73%

Question: For `CC(C)COC(=O)C1C(=O)CC(C)(O)C(C(=O)OCC(C)C)C1c1cccnc1` (stereo not given), which Potency is on record?
Answer: inconclusive: 20.6 µM [falling, single point]

Question: With `CC(=O)Nc1ccc(N2C(=O)C3C4CC(=O)C(c5ccccc54)C3C2=O)cc1` (stereo not given) as the molecule, how does the lipid storage change, negative = inhibition read?
Answer: inconclusive: -18.6%

Question: Which Potency does the source give for `CC1(C)C(=O)NCCN1C(=O)c1ccc2nc(Cc3ccccc3F)oc2c1` here?
Answer: inconclusive: 0.0517 µM [activator, full curve, poor fit]

Question: For `CCOC(=O)N1CCN(C(=O)C(=O)Nc2sc3c(c2C#N)CC(C)(C)OC3)CC1`, which Potency is on record?
Answer: inconclusive: 23.1 µM [falling, single point]

Question: For `COc1ccc(C(=O)Nc2ccc(-c3n[nH]c(=S)o3)cc2)cc1OC`, which lipid storage change, negative = inhibition is on record?
Answer: inconclusive: 4.43%

Question: For `Cc1cccc(C(=O)NNC(=O)c2ccc(S(=O)(=O)N3CCOCC3)cc2)c1`, which lipid storage change, negative = inhibition is on record?
Answer: inconclusive: -59.6%

Question: For `COc1cc(OC)cc(C(=O)NNC(=O)c2cc(=O)[nH]c3ccccc23)c1`, which lipid storage change, negative = inhibition is on record?
Answer: inconclusive: -3.46%

Question: Which Potency does the source give for `CC1CC(C)CN(C(=O)CSc2nc3ccsc3c(=O)n2Cc2ccccn2)C1` (stereo not given) here?
Answer: inconclusive: 0.82 µM [activator, partial curve]

Question: With `Cn1cc(S(=O)(=O)N2CCc3ccccc32)cc1C(=O)NC(C)(C)C` as the molecule, how does the lipid storage change, negative = inhibition read?
Answer: inconclusive: -39.5%

Question: For `CC1(C)OC(=O)C=C[C@]2(C)[C@H]3CC[C@@]4(C)[C@H](C(=O)O)OC(=O)[C@H]5O[C@]54[C@]3(C)C(=O)C[C@@H]12`, which lipid storage change, negative = inhibition is on record?
Answer: inconclusive: -3.97%

Question: With `CC1=C(C(=O)OC(C)C)C(c2ccc(Cl)cc2)n2c(s/c(=C\c3ccc(OCC(=O)O)cc3)c2=O)=N1` (stereo not given) as the molecule, how does the Potency read?
Answer: inconclusive: 32.6 µM [falling, single point]

Question: With `CCOC(=O)C1=C(C)NC(C)=C(C(=O)OCC)C1c1ccc(Br)o1` as the molecule, how does the lipid storage change, negative = inhibition read?
Answer: inconclusive: 11.6%

Question: Which lipid storage change, negative = inhibition does the source give for `O=C(N/N=C/c1ccc(N2CCOCC2)cc1)C1CC1` here?
Answer: inconclusive: 45.4%

Question: Which lipid storage change, negative = inhibition does the source give for `O=C(CCS(=O)(=O)c1ccccc1)Nc1nnc(-c2ccco2)o1` here?
Answer: inconclusive: -27.7%

Question: Which lipid storage change, negative = inhibition does the source give for `COC(=O)C[N+](C)(C)CC#Cc1ccccc1` here?
Answer: inconclusive: -13.6%

Question: Which Potency does the source give for `COc1ccc(-c2nnc(-c3ccccc3)o2)cc1OC` here?
Answer: inconclusive: 6.51 µM [falling, single point]

Question: With `O=C(CCN=C1NS(=O)(=O)c2ccccc21)OCc1c(F)c(F)c(F)c(F)c1F` as the molecule, how does the lipid storage change, negative = inhibition read?
Answer: inconclusive: -31.8%

Question: Which Potency does the source give for `CC(=O)N1CCN(c2ccc(NCc3ccc(C)cc3)cc2)CC1` here?
Answer: inconclusive: 29.1 µM [activator, single point]

Question: For `Nc1c2c(nc3sc4c(c13)CCCCC4)CCCCC2`, which lipid storage change, negative = inhibition is on record?
Answer: inconclusive: 33.1%

Question: Which lipid storage change, negative = inhibition does the source give for `CCC1CCCCN1C(=S)NC(=O)c1cc(Br)ccc1Cl` (stereo not given) here?
Answer: inconclusive: 15.3%

Question: Which Potency does the source give for `Cc1ccc(CC(=O)NCCCn2ccnc2)cc1` here?
Answer: inconclusive: 16.4 µM [rising, single point]

Question: For `CC(OC(=O)c1cc(=O)c2cc(Cl)ccc2o1)C(=O)N1CCCC1` (stereo not given), which lipid storage change, negative = inhibition is on record?
Answer: inconclusive

Question: For `Cc1ccc(-n2cc(CN(C)Cc3nccn3C)c(-c3cccc(C)c3)n2)cc1`, which lipid storage change, negative = inhibition is on record?
Answer: inconclusive: -10%

Question: With `O=C(COC(=O)c1ccc([N+](=O)[O-])s1)NC(c1ccccc1)c1ccccc1` as the molecule, how does the lipid storage change, negative = inhibition read?
Answer: inconclusive: 14.1%

Question: For `O=C(CSc1ccc(-c2cccs2)nn1)N1CCCCCC1`, which lipid storage change, negative = inhibition is on record?
Answer: inconclusive: -31.2%

Question: With `O=C(NCc1nc2ccccc2[nH]1)c1ccccc1F` as the molecule, how does the lipid storage change, negative = inhibition read?
Answer: inconclusive: 12.2%

Question: Which lipid storage change, negative = inhibition does the source give for `CN(CP(=O)(O)C(O)c1ccccc1)S(C)(=O)=O` (stereo not given) here?
Answer: inconclusive: 56.4%

Question: For `CCOC(=O)N1CCN(c2c(NCc3ccccc3OC)c(=O)c2=O)CC1`, which lipid storage change, negative = inhibition is on record?
Answer: inconclusive: -7.71%

Question: For `COc1ccc(CC(=O)NC(C)(C)CC(C)=O)cc1OC`, which lipid storage change, negative = inhibition is on record?
Answer: inconclusive: 26%

Question: For `CC(=O)O[C@H]1CC(=O)OC(C)(C)C2CC(=O)[C@]3(C)C(CC[C@@](C)([C@@H](O[C@@H]4O[C@H](CO)[C@@H](O)[C@H](O)[C@H]4O)c4ccoc4)[C@@]34O[C@@H]4C(=O)O)[C@]21C` (stereo not given in full), which lipid storage change, negative = inhibition is on record?
Answer: inconclusive: -1.57%

Question: With `CCOc1ccccc1NC(=O)[C@@H](NC(=O)c1ccccc1F)C(C)C` as the molecule, how does the Potency read?
Answer: inconclusive: 2.91 µM [activator, single point]

Question: With `CCOC(=O)c1c(-c2ccccc2)nnn1-c1nc(OCC)nc(N2CCCCC2)n1` as the molecule, how does the lipid storage change, negative = inhibition read?
Answer: inconclusive: -0.532%

Question: With `C=CCNC(=O)c1cccn1-c1ccsc1C(=O)OC` as the molecule, how does the lipid storage change, negative = inhibition read?
Answer: inconclusive: 0.225%

Question: For `CCCn1c(C2CCCN2c2nc(-c3ccc(OC)cc3)cs2)nc2ccccc21` (stereo not given), which Potency is on record?
Answer: inconclusive: 0.0052 µM [activator, full curve, poor fit]

Question: Which lipid storage change, negative = inhibition does the source give for `O=C(NCCc1ccccc1)C1CCC(CNS(=O)(=O)c2cccc3cccnc23)CC1` (stereo not given) here?
Answer: inconclusive: 12.4%

Question: With `COc1ccc([C@@H]2CC=C(C(=O)O)[C@H](c3ccccc3F)N2S(=O)(=O)c2ccccc2C)cc1` as the molecule, how does the lipid storage change, negative = inhibition read?
Answer: inconclusive: 8.92%

Question: With `CCc1ccc(NC(=O)N2CCN(c3ccccc3)CC2)cc1` as the molecule, how does the lipid storage change, negative = inhibition read?
Answer: inconclusive: 14.5%

Question: For `CC(C)(C)c1nc(CN2CCCCC2)cc(CN2CCCCC2)c1O`, which Potency is on record?
Answer: active: 20.6 µM

Question: For `CCn1c2ccccc2c2nc3ccccc3nc21`, which Potency is on record?
Answer: inconclusive: 10.3 µM [falling, partial curve, poor fit]

Question: For `NCCCC[C@H](N)c1nnc([C@H](CC(=O)O)NC(=O)C2CCNCC2)o1`, which lipid storage change, negative = inhibition is on record?
Answer: inconclusive: -29.7%

Question: Which lipid storage change, negative = inhibition does the source give for `O=C(Cc1ccc(Cl)cc1)NCC(=O)N1CCN(Cc2ccccc2)CC1` here?
Answer: inconclusive: -8.97%

Question: With `CSc1ccc(C(=O)C2CCCN(Cc3cccn3-c3cccnc3)C2)cc1` (stereo not given) as the molecule, how does the lipid storage change, negative = inhibition read?
Answer: inconclusive: -23.6%

Question: Which lipid storage change, negative = inhibition does the source give for `COC(=O)C1=CN(Cc2cccs2)C=C(C(=O)OC)C1c1cccc(O)c1` here?
Answer: inconclusive: 12.9%

Question: Which Potency does the source give for `CN(C)c1ccc(N2C(=NC(=O)CCC3CCCC3)SC3CS(=O)(=O)CC32)cc1` (stereo not given) here?
Answer: inconclusive: 0.184 µM [activator, full curve, poor fit]

Question: Which Potency does the source give for `COc1ccc(NC(=O)CCCC2CCCCC2)c(OC)c1` here?
Answer: inconclusive: 29.1 µM [falling, single point]

Question: For `Cc1cc(N2CCN(c3ccccc3)CC2)n2nnnc2n1`, which lipid storage change, negative = inhibition is on record?
Answer: inconclusive: -68.8%

Question: With `CN(C)c1ccc(NC(=S)NCC2CCCO2)cc1` (stereo not given) as the molecule, how does the lipid storage change, negative = inhibition read?
Answer: inconclusive: 24.5%

Question: For `CC(OC(=O)CNC(=O)c1ccc2c(c1)OCO2)C(=O)NCCC1=CCCCC1` (stereo not given), which lipid storage change, negative = inhibition is on record?
Answer: inconclusive: -7.75%

Question: Which Potency does the source give for `Clc1ccc(/C=N/NC2=Nc3cccc4cccc2c34)cc1` here?
Answer: inconclusive: 18.4 µM [falling, single point]

Question: Which lipid storage change, negative = inhibition does the source give for `COc1ccc(C2CC(c3ccccc3)=NN2c2ccc(C(N)=O)cc2)cc1` (stereo not given) here?
Answer: inconclusive: -71.5%

Question: With `COCc1cc(N2CCOCC2)nc(-c2ccccc2)n1` as the molecule, how does the lipid storage change, negative = inhibition read?
Answer: inconclusive: 74.9%

Question: Which lipid storage change, negative = inhibition does the source give for `CC1=CC(c2ccccc2)=Nc2ccc(C)cc2N1` here?
Answer: inconclusive: -1.92%

Question: For `C=C(C)CSc1nc2sc3c(c2c(=O)n1-c1ccc(OC)cc1)CCN(C)C3`, which lipid storage change, negative = inhibition is on record?
Answer: inconclusive: -12%

Question: With `CCCCNc1nnc(CCn2nc(C)c(Br)c2C)s1` as the molecule, how does the lipid storage change, negative = inhibition read?
Answer: inconclusive: -13.1%

Question: For `CCOC(=O)N1CCN(C(=O)c2ccc3c(c2)N(Cc2ccc(C)cc2)CCS3)CC1`, which lipid storage change, negative = inhibition is on record?
Answer: inconclusive: 196%

Question: With `COc1ccc(NS(=O)(=O)c2ccc(C)c(C(=O)N(C)CCc3ccc(OC)c(OC)c3)c2)cc1` as the molecule, how does the lipid storage change, negative = inhibition read?
Answer: inconclusive: -27.5%

Question: With `Cc1cccc(C)c1NC(=O)CCCSc1nnc(-c2ccco2)o1` as the molecule, how does the Potency read?
Answer: inconclusive: 6.51 µM [activator, partial curve, poor fit]

Question: For `Cc1ccc(S(=O)(=O)CCc2nnc(NC(=O)CCl)s2)cc1C`, which Potency is on record?
Answer: inconclusive: 32.6 µM [falling, single point]

Question: Which lipid storage change, negative = inhibition does the source give for `Cc1cc(C)nc(/N=C(/NC(=O)Nc2ccc(Cl)c(Cl)c2)Nc2ccccc2)n1` here?
Answer: inconclusive: 21.2%

Question: With `C=CCSc1nnc(NC(=O)c2cccc(S(=O)(=O)N(C)c3ccccc3)c2)s1` as the molecule, how does the lipid storage change, negative = inhibition read?
Answer: inconclusive: -3.5%

Question: For `O=C(Nc1ccccc1F)NC1CCN(Cc2nnnn2Cc2ccc(F)cc2)CC1`, which lipid storage change, negative = inhibition is on record?
Answer: inconclusive: 23.1%

Question: For `O=C(N/N=C/c1ccccc1O)c1cc(=O)[nH]c2ccccc12`, which Potency is on record?
Answer: inconclusive: 4.61 µM [falling, full curve]

Question: For `N#C/C(=C\c1ccc([N+](=O)[O-])o1)c1nc2ccccc2[nH]1`, which Potency is on record?
Answer: active: 4.11 µM

Question: With `Cc1cc(C)n2nc(C(=O)N/N=C/c3c4ccccc4cc4ccccc34)nc2n1` as the molecule, how does the Potency read?
Answer: inconclusive: 9.2 µM [cytotoxic, partial curve]

Question: Which Potency does the source give for `Cc1ccc(S(=O)(=O)N2CCSC2c2ccco2)cc1` (stereo not given) here?
Answer: inconclusive: 6.51 µM [falling, single point]

Question: For `O=C(CSc1nnc(-c2ccncc2)o1)NCc1ccc(Cl)cc1`, which Potency is on record?
Answer: inconclusive: 20.6 µM [activator, single point]
